Source: patent US8815900B2, “Compounds and compositions for reducing lipid levels” (CVI Pharmaceuticals Limited, priority 2007, dated 2014)
For at least one compound, name, drawing or mass did not settle the structure.

What was measured:
Assay type in all cases: cell-based, Human
[1] = tested on: LDLR mRNA expression in HepG2 cells; experiment: LDLR mRNA expression in HepG2 cells, semi-quantitative RT-PCR; settings: 24 hours, indicated concentrations (FIG. 16)
Description: HepG2 cells obtained from American Tissue Culture Collection (Manassas, Va., USA) were seeded in 6-well culture plates at a density of 0.8×10^6 cells/well cultured in EMEM containing 0.5% FBS and were treated with each purified compound at indicated doses for 8 hours. Total RNA was isolated, and 2 μg per sample was reverse transcribed with random primers using M-MLV (Promega) at 37° C. for 1 hour. PCR was carried out at 94° C. for 30 sec, 60° C. for 30 sec, and 72° C. for 30 sec with initial activation of the enzyme at 94° C. for 1 minute. Thirty cycles were performed for LDLR and GAPDH. PCR was performed using primers HLDLR-up and HLDLR-lo for LDLR and primers HGAPDH-up and HGAPDH-lo for GAPDH. The PCR products were separated on a 1% agarose gel and the band intensity was quantitated. LDLR mRNA levels were corrected by measuring GAPDH mRNA levels.
After the treatment, a portion of cells was harvested for total RNA, and another portion of cells was used for TG measurement. The LDLR mRNA levels were assessed by semi quantitative RT-PCR, and the cellular TG content was determined as described above.

[2] = tested on: PCSK9 mRNA expression in HepG2 cells; experiment: PCSK9 mRNA expression in HepG2 cells, quantitative real-time RT-PCR; settings: 24 hours, indicated concentrations (FIG. 19B)
Description: The effects of compounds of Formula I, II, III, and IV on the inhibition of PCSK9 mRNA expression was examined (Horton J D, Cohen J C, Hobbs H H. “Molecular biology of PCSK9: its role in LDL metabolism” TRENDS in Biochemical Sciences 2007; 32:71-77; Cameron J, Ranheim T, Kulseth M A, Leren T P, Berge K E. “Berberine decreases PCSK9 expression in HepG2 cells” Atherosclerosis, 2008 online publication). HepG2 cells were treated with new compounds individually at 10 uM dose for 24 hours. Total RNA was harvested for quantitative real-time RT-PCR analysis using method described in Example 16B. The fold activity was derived by dividing the amount of normalized PCSK9 mRNA in compound-treated cells over the amount of PCSK9 mRNA in untreated control cells. In these experiments, berberine chloride (10 uM) was included for comparison (see FIG. 18).
Total RNA was harvested for quantitative real-time RT-PCR analysis using method described in Examples 16B. The fold activity was derived by dividing the amount of normalized LDLR or PCSK9 mRNA in compound-treated cells over the amount of LDLR or PCSK9 mRNA in untreated control cells.

[3] = tested on: LDLR mRNA expression in HepG2 cells; experiment: LDLR mRNA expression in HepG2 cells, quantitative real-time RT-PCR; settings: 24 hours, indicated concentrations (FIG. 19A)
Description: In yet another experiment, HepG2 cells were treated with various compounds for 24 hours at the indicated doses. Total RNA was isolated and 2 μg was used to generate cDNA in a reaction containing random primers and M-MLV at 37° C. for 1 hour in a volume of […] Real-time PCR was performed on the cDNA using MCEP REALPLEX 2 SYSTEM (Eppendorf) and Universal MasterMix (Applied Biosystems). Human LDLR and GAPDH Pre-Developed TaqMan Assay Reagents (Applied Biosystems) were used to assess the levels of mRNA expressions in HepG2. The levels of LDLR mRNA were normalized to that of GAPDH. Each RNA samples was assayed in triplicate. The abundance of LDLR mRNA in untreated cells was defined as 1, and the amounts of LDLR mRNA from compound-treated cells were plotted relative to that value in FIG. 13. The data shown are mean±s.d.
Activities of some compounds of Formulas I, II, III, and IV on LDLR mRNA expression were determined. HepG2 cells were treated with new compounds individually at a dose less than or equal to 10 μM for 24 hours. Total RNA was harvested for quantitative real-time RT-PCR analysis using the method described in Example 16B. […]
Quantitative real-time RT-PCR was conducted, and triplicate was assayed in each RNA sample. […]
Total RNA was harvested for quantitative real-time RT-PCR analysis using method described in Examples 16B.

HepG2 cells = experiment: Cellular triglyceride content in HepG2 cells; settings: 24 hours, indicated concentrations (FIG. 16)

In the case of `CCC(C)(C)C(=O)O[C@H]1C[C@@H](C)C=C2C=C[C@H](C)[C@H](CC[C@@H]3C[C@@H](O)CC(=O)O3)[C@H]21` [simvastatin, reference compound], the “LDLR mRNA levels” value [1] was “dose-dependently increased”, the “PCSK9 mRNA expression” value [2] was “increases” and the “LDLR mRNA expression” value [3] was “increases”. The “cellular TG content” value (HepG2 cells) was “failed to lower”.
